Measured values published in patent US4297346A, “Pseudopeptides used as medicaments” (priority 1976, dated 1981).
Where “and” joins values, the source holds several entries; their conditions need not be identical. Equal values may be shown once. Not every detail of the peptide structures is certain; ends, links or a residue may be inferred.

Assays:
mouse = experiment: Action on the rectal temperature in the mouse (amphetamic pseudopeptides); type: in vivo
Method: action on the rectal temperature in the mouse.
(§1) A comparison of these three substances, pGlu-Amph, pGlu-His-Amph and pGlu-His-Pro-Amph, with amphetamine, has been able to be carried out as follows; for this purpose, the products were administered systematically by intraperitoneal route and by oral route, it being possible for this latter procedure to verify the generally admitted assertion of a gastric hydrolysis of peptides; in this case, the action of the amphetamine should be integrally re-established.
A--Action on the rectal temperature in respect of the mouse

rat = experiment: Induction of stereotype movements in the rat; type: in vivo
Method: induction of stereotypes in the rat,
as §1
B--Induction of stereotype movements

Compound: CC(Cc1ccccc1)NC(=O)[C@@H]1CCCN1C(=O)[C@H](Cc1c[nH]cn1)NC(=O)[C@@H]1CCC(=O)N1 (stereo partly drawn) [pGlu-His-Pro-Amph, pGlu--His--Pro--Amph]
- action on the rectal temperature (in words) (mouse; intraperitoneal route): approaches very close to that of amphetamine
- dose from which a hyperthermia appears (mouse; intraperitoneal route): ≥ 50 mg/kg
- temperature of the treated animals versus control animals (mouse; intraperitoneal route, after 5 hours): remains higher than that of the control animals
- dose causing a hypothermia 30 minutes after injection (mouse; intraperitoneal route, small doses): 12.5 mg/kg and 25 mg/kg
- action on the rectal temperature 5 hours after administration (mouse; oral route, 5 hours after administration): slight hyperthermia
- action on the rectal temperature during the first 3 hours (mouse; oral route, first 3 hours): does not exert any action
- dosage of contained amphetamine versus dosage of amphetamine causing an equal intensity of stereotypes (rat; intraperitoneal route): smaller than for pGlu-His-Amph
- induction of stereotype movements (in words) (rat; intraperitoneal route): approaches that of pGlu-His-Amph
- doses versus doses of amphetamine producing a similar/equivalent effect (rat; oral route): higher than the dosages of amphetamine producing an equivalent effect
- induction of stereotype movements (in words) (rat; oral route): much greater by oral administration than by intraperitoneal administration
